Measurements from patent publication US20100029697A1, “SUBSTITUTED PYRIDO[3,2-E][1,2,4]TRIAZOLO[4,3-C]PYRIMIDINE DERIVATIVES AS CANNABINOID-1 RECEPTOR MODULATORS” (priority 2007, published 2010).
Some results were stated once for a whole list of compounds, not compound by compound.

Amino acid sequences for entries named in this document (tags omitted).
UniProt P21554, whole entry: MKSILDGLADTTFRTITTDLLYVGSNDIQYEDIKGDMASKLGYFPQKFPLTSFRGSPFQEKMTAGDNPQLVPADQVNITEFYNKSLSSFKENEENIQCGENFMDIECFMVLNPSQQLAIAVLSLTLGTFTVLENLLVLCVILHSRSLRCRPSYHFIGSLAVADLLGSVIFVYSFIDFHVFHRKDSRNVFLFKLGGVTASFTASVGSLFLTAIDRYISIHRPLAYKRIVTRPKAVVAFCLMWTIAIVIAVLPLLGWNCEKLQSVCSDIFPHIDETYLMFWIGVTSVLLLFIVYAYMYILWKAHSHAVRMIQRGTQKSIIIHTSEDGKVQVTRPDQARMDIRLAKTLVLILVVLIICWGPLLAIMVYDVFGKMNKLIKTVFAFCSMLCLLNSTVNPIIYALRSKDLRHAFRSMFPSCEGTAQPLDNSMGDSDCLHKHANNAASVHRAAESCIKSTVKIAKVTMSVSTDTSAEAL

Biological target: recombinant human CB1 receptor (Homo sapiens, UniProt P21554)
Experiment: Cannabinoid Receptor-1 (CB1) Binding Assay ([3H]CP-55940 displacement)
Conditions: upper bound stated in text
Description: Binding affinity determination is based on recombinant human CB1 receptor expressed in Chinese Hamster Ovary (CHO) cells (Felder et al, Mol. Pharmacol. 48: 443-450, 1995). Total assay volume is 250 μl (240 μl CB1 receptor membrane solution plus 5 μl test compound solution plus 5 μl [3H]CP-55940 solution). Final concentration of [3H]CP-55940 is 0.6 nM. Binding buffer contains 50 mM Tris-HCl, pH7.4, 2.5 mM EDTA, 5 mM MgCl2, 0.5 mg/mL fatty acid free bovine serum albumin and protease inhibitors (Cat#P8340, from Sigma). To initiate the binding reaction, 5 μl of radioligand solution is added, the mixture is incubated with gentle shaking on a shaker for 1.5 h at 30° C. The binding is terminated by using 96-well harvester and filtering through GF/C filter presoaked in 0.05% polyethylenimine. The bound radiolabel is quantitated using scintillation counter. Apparent binding affinities for various compounds are calculated from IC50 values (DeBlasi et al., Trends Pharmacol Sci 10: 227-229, 1989).

IC50, < 1200 nM:
CC(C)(C)c1nc2nc(-c3ccccc3Cl)c(-c3ccc(Cl)cc3)cc2c2n[nH]c(=O)n12 [Example 1, 5-Tert-butyl-8-(2-chlorophenyl)-9-(4-chlorophenyl)pyrido[3,2-e][1,2,4]triazolo[4,3-c]pyrimidin-3(2H)-one]
CC(C)(C)c1nc2nc(-c3ccccc3Cl)c(-c3ccc(Cl)cc3)cc2c2nncn12 [Example 2, 5-Tert-butyl-8-(2-chlorophenyl)-9-(4-chlorophenyl)pyrido[3,2-e][1,2,4]-triazolo[4,3-c]pyrimidine]
CC(C)(C)c1nc2nc(-c3ccc(Br)cc3Cl)c(-c3ccc(Cl)cc3)cc2c2n[nH]c(=O)n12 [Example 3, 8-(4-Bromo-2-chlorophenyl)-5-tert-butyl-9-(4-chlorophenyl)pyrido[3,2-e][1,2,4]triazolo[4,3-c]pyrimidin-3(2H)-one]
Cc1ccccc1-c1nc2nc(C(C)(C)C)n3c(=O)[nH]nc3c2cc1-c1ccc(Cl)cc1 [Example 4, 5-Tert-butyl-9-(4-chlorophenyl)-8-(2-methylphenyl)pyrido[3,2-e][1,2,4]triazolo[4,3-c]pyrimidin-3(2H)-one]
CC(C)(C)c1nc2nc(-c3ccccc3Cl)c(-c3ccc(Br)cc3)cc2c2n[nH]c(=O)n12 [Example 5, 9-(4-Bromophenyl)-5-tert-butyl-8-(2-chlorophenyl)pyrido[3,2-e][1,2,4]triazolo[4,3-c]pyrimidin-3(2H)-one]
CC(C)(C)c1nc2nc(-c3ccccc3Br)c(-c3ccc(Cl)cc3)cc2c2n[nH]c(=O)n12 [Example 6, 8-(2-Bromophenyl)-5-tert-butyl-9-(4-chlorophenyl)pyrido[3,2-e][1,2,4]triazolo[4,3-c]pyrimidin-3(2H)-one]
CC(C)(C)c1nc2nc(-c3ccc(Cl)cc3Br)c(-c3ccc(Cl)cc3)cc2c2n[nH]c(=O)n12 [Example 7, 8-(2-Bromo-4-chlorophenyl)-5-tert-butyl-9-(4-chlorophenyl)pyrido[3,2-e][1,2,4]triazolo[4,3-c]pyrimidin-3(2H)-one]
Cc1cccc(-c2nc3nc(C(C)(C)C)n4c(=O)[nH]nc4c3cc2-c2ccc(Cl)cc2)c1Cl [Example 8, 5-Tert-butyl-8-(2-chloro-3-methylphenyl)-9-(4-chlorophenyl)pyrido[3,2-e][1,2,4]triazolo[4,3-c]pyrimidin-3(2H)-one]
CC(C)(C)c1nc2nc(-c3ccccc3Cl)c(-c3cccc(Cl)c3)cc2c2n[nH]c(=O)n12 [Example 10, 5-Tert-butyl-8-(2-chlorophenyl)-9-(3-chlorophenyl)pyrido[3,2-e][1,2,4]triazolo[4,3-c]pyrimidin-3(2H)-one]
Cc1ccc(-c2cc3c(nc2-c2ccccc2Cl)nc(C(C)(C)C)n2c(=O)[nH]nc32)cc1 [Example 11, 5-Tert-butyl-8-(2-chlorophenyl)-9-(4-methylphenyl)pyrido[3,2-e][1,2,4]triazolo[4,3-c]pyrimidin-3(2H)-one]
CN(C)c1ccc(-c2cc3c(nc2-c2ccccc2Cl)nc(C(C)(C)C)n2c(=O)[nH]nc32)cc1 [Example 12, 5-Tert-butyl-8-(2-chlorophenyl)-9-[4-(dimethylamino)phenyl]pyrido[3,2-e][1,2,4]triazolo[4,3-c]pyrimidin-3(2H)-one]
CC(C)(C)c1nc2nc(-c3ccccc3Cl)c(-c3ccc(OC(F)(F)F)cc3)cc2c2n[nH]c(=O)n12 [Example 13, 5-Tert-butyl-8-(2-chlorophenyl)-9-[4-(trifluoromethoxy)phenyl]pyrido[3,2-e][1,2,4]triazolo[4,3-c]pyrimidin-3(2H)-one]
COc1ccc(-c2cc3c(nc2-c2ccccc2Cl)nc(C(C)(C)C)n2c(=O)[nH]nc32)cc1 [Example 14, 5-Tert-butyl-8-(2-chlorophenyl)-9-(4-methoxyphenyl)pyrido[3,2-e][1,2,4]triazolo[4,3-c]pyrimidin-3(2H)-one]
CC(C)Oc1ccc(-c2cc3c(nc2-c2ccccc2Cl)nc(C(C)(C)C)n2c(=O)[nH]nc32)cc1 [Example 15, 5-Tert-butyl-8-(2-chlorophenyl)-9-(4-isopropoxyphenyl)pyrido[3,2-e][1,2,4]triazolo[4,3-c]pyrimidin-3(2H)-one]
CC(C)(C)c1nc2nc(-c3ccccc3Cl)c(-c3ccc(C#N)cc3)cc2c2n[nH]c(=O)n12 [Example 16, 4-[5-Tert-butyl-8-(2-chlorophenyl)-3-oxo-2,3-dihydropyrido[3,2-e][1,2,4]triazolo[4,3-c]pyrimidin-9-yl]benzonitrile]
CC(C)(C)c1nc2nc(-c3ccccc3Cl)c(-c3ccc(C(F)(F)F)cc3)cc2c2n[nH]c(=O)n12 [Example 17, 5-Tert-butyl-8-(2-chlorophenyl)-9-[4-(trifluoromethyl)phenyl]pyrido[3,2-e][1,2,4]triazolo[4,3-c]pyrimidin-3(2H)-one]
CC(C)(C)c1nc2nc(-c3ccccc3Cl)c(-c3ccc(F)cc3)cc2c2n[nH]c(=O)n12 [Example 18, 5-Tert-butyl-8-(2-chlorophenyl)-9-(4-fluorophenyl)pyrido[3,2-e][1,2,4]triazolo[4,3-c]pyrimidin-3(2H)-one]
CC(C)(C)c1nc2nc(-c3ccccc3Cl)c(-c3ccc(F)c(F)c3)cc2c2n[nH]c(=O)n12 [Example 19, 5-Tert-butyl-8-(2-chlorophenyl)-9-(3,4-difluorophenyl)pyrido[3,2-e][1,2,4]triazolo[4,3-c]pyrimidin-3(2H)-one]
CC(C)(C)c1nc2nc(-c3ccccc3Cl)c(-c3cc(F)cc(F)c3)cc2c2n[nH]c(=O)n12 [Example 20, 5-Tert-butyl-8-(2-chlorophenyl)-9-(3,5-difluorophenyl)pyrido[3,2-e][1,2,4]triazolo[4,3-c]pyrimidin-3(2H)-one]
Cc1cc(-c2cc3c(nc2-c2ccccc2Cl)nc(C(C)(C)C)n2c(=O)[nH]nc32)ccc1Cl [Example 21, 5-Tert-butyl-9-(4-chloro-3-methylphenyl)-8-(2-chlorophenyl)pyrido[3,2-e][1,2,4]triazolo[4,3-c]pyrimidin-3(2H)-one]
CC(C)(C)c1nc2nc(-c3ccccc3Cl)c(-c3ccc(S(C)(=O)=O)cc3)cc2c2n[nH]c(=O)n12 [Example 22, 5-Tert-butyl-8-(2-chlorophenyl)-9-[4-(methylsulfonyl)phenyl]pyrido[3,2-e][1,2,4]triazolo[4,3-c]pyrimidin-3(2H)-one]
CC(C)(C)c1nc2nc(-c3ccccc3Cl)c(-c3ccncc3)cc2c2n[nH]c(=O)n12 [Example 23, 5-Tert-butyl-8-(2-chlorophenyl)-9-pyridin-4-ylpyrido[3,2-e][1,2,4]triazolo[4,3-c]pyrimidin-3(2H)-one]
CC(C)(C)c1nc2nc(-c3ccccc3Cl)c(-c3cccnc3)cc2c2n[nH]c(=O)n12 [Example 24, 5-Tert-butyl-8-(2-chlorophenyl)-9-pyridin-3-ylpyrido[3,2-e][1,2,4]triazolo[4,3-c]pyrimidin-3(2H)-one]
CC(C)(C)c1nc2nc(-c3ccccc3Cl)c(-c3ccc(F)nc3)cc2c2n[nH]c(=O)n12 [Example 25, 5-Tert-butyl-8-(2-chlorophenyl)-9-(6-fluoropyridin-3-yl)pyrido[3,2-e][1,2,4]triazolo[4,3-c]pyrimidin-3(2H)-one]
CC(C)(C)c1nc2nc(-c3ccccc3Cl)c(-c3ccc(C#N)nc3)cc2c2n[nH]c(=O)n12 [Example 26, 5-[5-Tert-butyl-8-(2-chlorophenyl)-3-oxo-2,3-dihydropyrido[3,2-e][1,2,4]triazolo[4,3-c]pyrimidin-9-yl]pyridine-2-carbonitrile]
CC(C)(C)c1nc2nc(-c3ccccc3-c3ccc(F)cc3)c(-c3ccc(F)cc3)cc2c2n[nH]c(=O)n12 [Example 27, 5-Tert-butyl-8-(4′-fluorobiphenyl-2-yl)-9-(4-fluorophenyl)pyrido[3,2-e][1,2,4]triazolo[4,3-c]pyrimidin-3(2H)-one]
CC(C)(C)c1nc2nc(-c3ccc(C#N)cc3Cl)c(-c3ccc(Cl)cc3)cc2c2n[nH]c(=O)n12 [Example 28, 4-[5-Tert-butyl-9-(4-chlorophenyl)-3-oxo-2,3-dihydropyrido[3,2-e][1,2,4]triazolo[4,3-c]pyrimidin-8-yl]-3-chlorobenzonitrile]
CC(C)(C)c1nc2nc(-c3ccc(Cl)cc3C#N)c(-c3ccc(Cl)cc3)cc2c2n[nH]c(=O)n12 [Example 29, 2-[5-Tert-butyl-9-(4-chlorophenyl)-3-oxo-2,3-dihydropyrido[3,2-e][1,2,4]triazolo[4,3-c]pyrimidin-8-yl]-5-chlorobenzonitrile]
CC(C)(C)c1nc2nc(-c3ccccc3C#N)c(-c3ccc(Cl)cc3)cc2c2n[nH]c(=O)n12 [Example 30, 2-[5-Tert-butyl-9-(4-chlorophenyl)-3-oxo-2,3-dihydropyrido[3,2-e][1,2,4]triazolo[4,3-c]pyrimidin-8-yl]benzonitrile]
CC(C)(C)c1nc2nc(-c3ccc(C#N)cc3C#N)c(-c3ccc(Cl)cc3)cc2c2n[nH]c(=O)n12 [Example 31, 4-[5-Tert-butyl-9-(4-chlorophenyl)-3-oxo-2,3-dihydropyrido[3,2-e][1,2,4]triazolo[4,3-c]pyrimidin-8-yl]isophthalonitrile]
CC(C)(C)c1nc2nc(-c3ccccc3Cl)c(-c3ccc(-c4ncon4)cc3)cc2c2n[nH]c(=O)n12 [Example 32, 5-Tert-butyl-8-(2-chlorophenyl)-9-[4-(1,2,4-oxadiazol-3-yl)phenyl]pyrido[3,2-e][1,2,4]-triazolo[4,3-c]pyrimidin-3(2H)-one]
